Reference: article PMC5737659

Amino acid sequences for entries named in this document (tags omitted). Residues count along the entry.
UniProt Q9Z2W9, residues 23-888: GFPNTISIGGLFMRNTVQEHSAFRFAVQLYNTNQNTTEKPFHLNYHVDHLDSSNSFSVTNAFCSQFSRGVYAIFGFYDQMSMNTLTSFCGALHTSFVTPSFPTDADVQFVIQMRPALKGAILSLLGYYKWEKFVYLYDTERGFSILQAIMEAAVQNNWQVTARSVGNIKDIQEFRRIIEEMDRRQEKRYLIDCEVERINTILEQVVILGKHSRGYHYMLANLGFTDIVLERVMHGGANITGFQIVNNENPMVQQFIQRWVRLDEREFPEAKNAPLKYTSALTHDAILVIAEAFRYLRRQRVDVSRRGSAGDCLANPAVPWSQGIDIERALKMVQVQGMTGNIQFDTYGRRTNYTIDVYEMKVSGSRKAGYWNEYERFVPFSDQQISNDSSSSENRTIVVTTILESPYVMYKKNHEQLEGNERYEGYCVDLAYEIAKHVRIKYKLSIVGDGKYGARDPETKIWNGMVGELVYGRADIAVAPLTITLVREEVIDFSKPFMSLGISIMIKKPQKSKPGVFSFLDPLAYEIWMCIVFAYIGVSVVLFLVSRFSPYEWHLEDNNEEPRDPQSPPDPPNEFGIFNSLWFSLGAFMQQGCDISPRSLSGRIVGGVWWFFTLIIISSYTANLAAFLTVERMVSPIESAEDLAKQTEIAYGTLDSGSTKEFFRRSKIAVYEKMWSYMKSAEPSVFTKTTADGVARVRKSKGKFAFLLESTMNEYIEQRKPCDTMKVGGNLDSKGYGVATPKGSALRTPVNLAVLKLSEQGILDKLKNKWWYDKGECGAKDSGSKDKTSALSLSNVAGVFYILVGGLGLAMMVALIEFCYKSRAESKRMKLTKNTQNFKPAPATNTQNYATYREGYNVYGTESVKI
UniProt Q3UH99, residues 31-525: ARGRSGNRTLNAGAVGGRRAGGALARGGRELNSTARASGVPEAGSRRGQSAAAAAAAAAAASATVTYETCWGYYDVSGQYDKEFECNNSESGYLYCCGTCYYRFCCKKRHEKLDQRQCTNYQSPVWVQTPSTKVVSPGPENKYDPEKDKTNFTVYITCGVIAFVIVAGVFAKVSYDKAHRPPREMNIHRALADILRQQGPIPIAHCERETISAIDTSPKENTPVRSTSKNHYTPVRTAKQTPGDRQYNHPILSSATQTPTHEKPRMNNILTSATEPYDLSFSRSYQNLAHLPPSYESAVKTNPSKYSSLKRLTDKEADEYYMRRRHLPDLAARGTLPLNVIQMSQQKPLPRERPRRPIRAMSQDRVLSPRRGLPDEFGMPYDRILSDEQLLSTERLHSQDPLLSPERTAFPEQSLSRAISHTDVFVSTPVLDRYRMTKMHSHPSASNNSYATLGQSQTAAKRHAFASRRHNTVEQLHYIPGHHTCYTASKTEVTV
UniProt Q9CZN4, residues 24-424: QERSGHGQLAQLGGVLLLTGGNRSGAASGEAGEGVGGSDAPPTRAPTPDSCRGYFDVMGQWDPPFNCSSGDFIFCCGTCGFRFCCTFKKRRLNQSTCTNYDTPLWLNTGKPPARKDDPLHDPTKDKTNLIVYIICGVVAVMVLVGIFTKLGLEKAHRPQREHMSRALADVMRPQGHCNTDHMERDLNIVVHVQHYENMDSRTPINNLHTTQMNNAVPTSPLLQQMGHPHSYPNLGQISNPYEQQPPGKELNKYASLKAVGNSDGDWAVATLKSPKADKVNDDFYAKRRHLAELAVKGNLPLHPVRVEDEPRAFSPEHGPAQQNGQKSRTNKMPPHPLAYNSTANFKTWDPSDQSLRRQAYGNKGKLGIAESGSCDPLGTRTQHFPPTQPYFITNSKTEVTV

These substances were tested against T1, Shisa7 (native, mouse hippocampus) (mouse (endogenous in hippocampus)) (UniProt Q8C3Q5) (assay: affinity purification with mass spectrometry; anti-Shisa7 immunoprecipitation from DDM-extracted crude synaptic membranes of mouse hippocampus, WT against Shisa7 KO, n = 3 IPs per genotype; SDS-PAGE, in-gel digestion, TripleTOF 5600+).
T1 sequence (chain, N-linked glycans (removed by PNGase-F)): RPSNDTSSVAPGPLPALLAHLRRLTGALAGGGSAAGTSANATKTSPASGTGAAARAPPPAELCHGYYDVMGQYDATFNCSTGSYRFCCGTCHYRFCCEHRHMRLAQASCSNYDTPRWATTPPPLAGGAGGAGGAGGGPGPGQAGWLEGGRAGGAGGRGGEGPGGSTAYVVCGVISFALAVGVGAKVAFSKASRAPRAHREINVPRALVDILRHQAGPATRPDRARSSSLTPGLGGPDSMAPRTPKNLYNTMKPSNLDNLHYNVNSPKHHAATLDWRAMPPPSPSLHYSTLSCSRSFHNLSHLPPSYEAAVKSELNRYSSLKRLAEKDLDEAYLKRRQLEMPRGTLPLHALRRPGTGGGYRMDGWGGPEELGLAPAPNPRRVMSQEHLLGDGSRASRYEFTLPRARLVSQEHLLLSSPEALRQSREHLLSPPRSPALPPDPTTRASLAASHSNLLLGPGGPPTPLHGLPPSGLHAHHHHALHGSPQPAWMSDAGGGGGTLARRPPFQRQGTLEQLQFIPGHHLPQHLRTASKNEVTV

binding	Substance
binds	Glutamate receptor 3 (native, mouse hippocampus) (from UniProt Q9Z2W9 23-888)
binds	Protein shisa-6 homolog (native, mouse hippocampus) (from UniProt Q3UH99 31-525)
no binding	Shisa9 (native, mouse hippocampus) (from UniProt Q9CZN4 24-424)

No constants are given. Whether binding was seen depends on the method and setting. In cells and extracts the contact can be indirect. Here binding means that the protein was enriched with, or labelled near, the bait; the list need not be complete. A no says only that the protein was not detected with the bait. Sequences can lack the tags named with a protein.
